# Biological target: T1, OAT4 (Homo sapiens, UniProt Q9NSA0)
# T1 construct: cRNA (an RNA complementary to cDNA) was prepared from a plasmid containing this cDNA; expressed in transfected cells; host or cells: Xenopus laevis oocytes injected with OAT4 cRNA (transcribed in vitro with T7 RNA polymerase from plasmid pZL holding the hOAT4 cDNA)
# T1 sequence (Q9NSA0 1-550): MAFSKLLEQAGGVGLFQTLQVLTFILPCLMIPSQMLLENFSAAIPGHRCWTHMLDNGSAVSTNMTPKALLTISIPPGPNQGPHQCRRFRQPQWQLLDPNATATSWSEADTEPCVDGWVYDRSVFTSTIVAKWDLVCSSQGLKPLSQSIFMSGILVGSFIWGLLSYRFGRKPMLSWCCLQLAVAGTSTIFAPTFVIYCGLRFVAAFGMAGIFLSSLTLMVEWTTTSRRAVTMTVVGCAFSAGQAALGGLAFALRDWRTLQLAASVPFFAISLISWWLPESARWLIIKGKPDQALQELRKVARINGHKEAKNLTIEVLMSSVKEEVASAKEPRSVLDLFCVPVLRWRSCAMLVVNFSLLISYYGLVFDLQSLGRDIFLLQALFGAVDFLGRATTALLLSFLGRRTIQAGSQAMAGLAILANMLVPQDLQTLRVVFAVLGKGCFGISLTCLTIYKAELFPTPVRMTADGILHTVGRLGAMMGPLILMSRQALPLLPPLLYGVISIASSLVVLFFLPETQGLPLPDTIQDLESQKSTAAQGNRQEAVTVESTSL
# Test: Inhibition experiment: ^3H-estrone sulfate uptake in OAT4 cRNA-injected oocytes with various compounds
# Type: cell-based
# Conditions: 50 nM ^3H-estrone sulfate; 500 μM unlabeled compound; FIG. 4
# Experimental: Further, in order to investigate the substrate selectivity of OAT4 of the present invention, various ionic substances were added to an incorporation experimental system of ^3H-estrone sulfate and the influence thereby was tested (Inhibition Experiment).
# In order to further investigate the substrate selectivity of OAT4, various anionic substances were added to a system in an uptake experiment system of ^3H-estrone sulfate in oocytes into which OAT4 cRNA was injected and the influence was investigated (inhibition experiment). An uptake experiment of ^3H-estrone sulfate was carried out according to the above-mentioned method using oocytes into which OAT4 cRNA was injected. Uptake of 50 nM ^3H-estrone sulfate was measured in the presence and absence of 500 μM of various compounds (unlabeled).
smiles,measurement,value
NS(=O)(=O)c1cc(C(=O)O)c(NCc2ccco2)cc1Cl [furosemide],inhibition of transport of ^3H-estrone sulfate by OAT4,significantly inhibited

# From patent US7393939B2, “Placental organic anion transporter and gene thereof” (Japan Science and Technology Corporation, priority 1999, dated 2008)
